Reference: the supplement of paper PMC12889115
Some of the results follow. Values are raw readings; no control value is given beside them.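 Primary screen: polymyxin B was added at a level permeabilizing Salmonella outer membranes while sparing inner membranes. DMSO wells, both with and without polymyxin B, established maximum growth. Plate-to-plate variation meant each plate was ranked on its own, and the lowest-OD600 compounds were selected as hits.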

System: Salmonella enterica serovar Typhimurium SL1344
Experiment: bacterial growth OD600 after 18 h with compound and polymyxin B; higher = more bacterial growth (less inhibition)
Settings: 50 µM, Mueller-Hinton broth

| Compound | bacterial growth OD600 (polymyxin B 1 µg/mL) | bacterial growth OD600 (polymyxin B 0.75 µg/mL) |
| --- | --- | --- |
| CCn1ccnc1CN(C)Cc1cnc(S(=O)(=O)C(C)C)n1CCC(C)C | 1.08 |  |
| CC(C)CN1CCC(C2CCN(S(C)(=O)=O)C2)CC1 (centres undefined) |  | 0.887 |
| c1cc(CCCNc2ccc(-c3nc(C4CC4)no3)cn2)ccn1 | 1.05 |  |
| Cc1cccc(CNCC2(O)CCCN(Cc3cccc(F)c3F)C2=O)n1 (centres undefined) |  | 0.982 |
| CCN1CCC(N2CCC(n3nccc3NC(=O)c3ccc4c(c3)OCO4)CC2)CC1 |  | 0.814 |
| C=CCN1CC(C(=O)NCc2nc(-c3ccc(NC(=O)c4ccc(COC)o4)cc3)oc2C)CC1=O (centres undefined) |  | 0.76 |
| COc1cccc2c1OCCCN(C(=O)C1CCN(c3nc(C)c4ccccc4n3)CC1)C2 |  | 0.823 |
| CCN(CC)C1CCN(C(=O)c2cn(C3CCCCC3)cc(C(=O)NC(C)(C)C)c2=O)C1 (centres undefined) |  | 0.962 |
| CC(C(=O)N1CCC(N2CCC(C(=O)N3CCCC3)CC2)CC1)n1cnc2ccccc21 (centres undefined) | 1.13 |  |
| COc1ccccc1C1(CC(=O)N2CCCC(c3ccccc3C)C2)CC(=O)N(C)C1=O (centres undefined) |  | 0.054 |
| CCOC(=O)N1CCN(C2CCCN(Cc3cccn3-c3ncccn3)C2)CC1 (centres undefined) | 0.856 |  |
| OCCC1CCN(c2nncc(-c3cccc(F)c3)n2)CC1 | 1.04 |  |
| O=C(CN1C(=O)CSC1=O)N1CCOc2ccc(CN3CCN(c4ccc(F)cc4)CC3)cc2C1 |  | 0.809 |
| COCCN1C(=O)CC(CC(=O)N2CCCC(C(=O)Cc3ccccc3)C2)(c2ccccc2F)C1=O (centres undefined) |  | 0.805 |
| Cc1cccc(CCNC(=O)Cn2nnnc2CN2C[C@@H](C)O[C@@H](C)C2)n1 |  | 0.978 |
| Cc1cnc(SCc2ccccn2)nc1C1CCCN(CCCc2ccccc2)C1 (centres undefined) |  | 0.993 |
| COc1ccccc1CNc1ncnc2sc(C(=O)N3CCCC3)c(C)c12 |  | 0.799 |
| Cc1cccc(C2c3[nH]c4ccccc4c3CCN2C(=O)c2ocnc2C)n1 (centres undefined) | 0.719 |  |
| CC(C)C(=O)N1CCCC1C(=O)Nc1ccc(-c2nc3ccccc3o2)cc1 (centres undefined) |  | 0.963 |

Rewritten with each value named: part of the list above
Cc1cccc(CNCC2(O)CCCN(Cc3cccc(F)c3F)C2=O)n1 (centres undefined)
  bacterial growth OD600 (polymyxin B 0.75 µg/mL): 0.982
CC(C)C(=O)N1CCCC1C(=O)Nc1ccc(-c2nc3ccccc3o2)cc1 (centres undefined)
  bacterial growth OD600 (polymyxin B 0.75 µg/mL): 0.963
